# Reference: paper PMC5996148
# Chains of the proteins cited; added tags and fusions are not shown.
# UniProt Q92963, whole entry: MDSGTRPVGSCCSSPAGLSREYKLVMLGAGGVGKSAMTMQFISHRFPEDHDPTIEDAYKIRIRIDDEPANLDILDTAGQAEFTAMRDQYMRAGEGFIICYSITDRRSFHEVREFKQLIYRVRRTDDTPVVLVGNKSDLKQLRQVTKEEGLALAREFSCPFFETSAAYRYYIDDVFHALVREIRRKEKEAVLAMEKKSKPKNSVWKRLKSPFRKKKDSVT
# This is one part of the list. For some assays here: Construct or isoform of the protein are uncertain.
# Columns and labels:
# Assay in all cases: protein microarray (ProtoArray v5.0), streptavidin-Alexa Fluor 647
# Settings in all cases: 3'-biotin; 20 mM Tris (pH 7.5), 5 mM MgCl2, 100 mM KCl, 0.1% Tween-20, A/T-rich and random oligonucleotide blockers; temperature not stated; high values mean tight binding
# [1] = system: RBM33 (human)
# [2] = biological target: T1, RBM34 (UniProt P42696)
# T1 sequence: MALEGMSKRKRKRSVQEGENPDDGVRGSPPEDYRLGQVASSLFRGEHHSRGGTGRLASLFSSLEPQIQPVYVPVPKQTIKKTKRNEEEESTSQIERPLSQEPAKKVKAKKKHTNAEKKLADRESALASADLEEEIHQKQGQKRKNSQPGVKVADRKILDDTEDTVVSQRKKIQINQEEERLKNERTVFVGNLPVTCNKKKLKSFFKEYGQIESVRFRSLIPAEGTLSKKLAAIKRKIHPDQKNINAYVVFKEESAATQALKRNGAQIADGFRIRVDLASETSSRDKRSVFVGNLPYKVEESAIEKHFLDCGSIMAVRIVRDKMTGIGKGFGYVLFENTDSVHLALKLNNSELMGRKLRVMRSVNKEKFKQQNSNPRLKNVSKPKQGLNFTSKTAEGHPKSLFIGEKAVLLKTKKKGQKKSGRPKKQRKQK
# [3] = system: RBM9 (human)
# [4] = system: RCP9 (human)
# [5] = system: RCSD1 (human)
# [6] = system: REEP6 (human)
# [7] = system: RFC5 (human)
# [8] = system: RFPL3 (human)
# [9] = system: RGS10 (human)
# [10] = system: RHCG (human)
# [11] = system: RING finger and WD repeat domain-containing protein 3 (human)
# [12] = system: RING finger protein 122 (human)
# [13] = biological target: RIT1 (UniProt Q92963)
# [14] = biological target: T2, RIT2 (UniProt Q99578)
# T2 sequence: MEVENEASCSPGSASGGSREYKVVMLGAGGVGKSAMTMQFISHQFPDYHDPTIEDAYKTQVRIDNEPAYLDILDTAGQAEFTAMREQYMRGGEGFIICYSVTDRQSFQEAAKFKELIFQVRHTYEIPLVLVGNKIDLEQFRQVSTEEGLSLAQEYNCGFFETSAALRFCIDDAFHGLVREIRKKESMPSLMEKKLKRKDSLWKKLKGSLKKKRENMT
# [15] = system: RLBP1 (human)
# [16] = system: RLBP1L1 (human)
# [17] = system: RNASE8 (human)
# [18] = system: RNF11 (human)
# [19] = system: RNF111 (human)
# [20] = system: RNF141 (human)
sequence,measurement,setting,value
GGGGACAGGGGTATGGGGAGGGG [G4-3 biotinylated (CtG)],binding signal,[1],-0.319 z-score
same,binding signal,[2],3.52 z-score
same,binding signal,[3],-0.322 z-score
same,binding signal,[4],-0.33 z-score
same,binding signal,[5],-0.313 z-score
same,binding signal,[6],-0.309 z-score
same,binding signal,[7],-0.321 z-score
same,binding signal,[8],-0.326 z-score
same,binding signal,[9],-0.322 z-score
same,binding signal,[10],-0.333 z-score
same,binding signal,[11],-0.284 z-score
same,binding signal,[12],-0.335 z-score
same,binding signal,[13],6.28 z-score
same,binding signal,[14],5.52 z-score
same,binding signal,[15],-0.329 z-score
same,binding signal,[16],-0.329 z-score
same,binding signal,[17],-0.326 z-score
same,binding signal,[18],-0.334 z-score
same,binding signal,[19],-0.324 z-score
same,binding signal,[20],-0.344 z-score

# Quoted at random: two entries already listed
sequence,measurement,setting,value
GGGGACAGGGGTATGGGGAGGGG [G4-3 biotinylated (CtG)],binding signal,[11],-0.284 z-score
same,binding signal,[8],-0.326 z-score
